Data published in US20230374132A1.
No constants are given. Whether binding was seen depends on the method and setting. Some results given as binding are weak or reduced against the parent protein; the word gives no strength.

The chains behind the UniProt entries cited, without tags or fusion partners. Where a name states a change or a piece, a line headed by the entry shows the natural chain unless it says otherwise.
UniProt P07766: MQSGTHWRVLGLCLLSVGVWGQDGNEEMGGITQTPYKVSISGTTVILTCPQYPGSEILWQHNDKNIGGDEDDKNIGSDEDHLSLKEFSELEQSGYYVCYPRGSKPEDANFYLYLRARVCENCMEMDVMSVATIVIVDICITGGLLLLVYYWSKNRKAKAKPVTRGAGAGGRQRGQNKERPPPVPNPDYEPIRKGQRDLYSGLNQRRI
UniProt P04234: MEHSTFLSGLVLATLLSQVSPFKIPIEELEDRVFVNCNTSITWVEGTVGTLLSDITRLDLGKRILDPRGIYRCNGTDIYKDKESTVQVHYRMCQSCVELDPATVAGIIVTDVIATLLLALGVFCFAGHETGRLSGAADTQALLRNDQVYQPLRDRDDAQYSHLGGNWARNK
UniProt P09693: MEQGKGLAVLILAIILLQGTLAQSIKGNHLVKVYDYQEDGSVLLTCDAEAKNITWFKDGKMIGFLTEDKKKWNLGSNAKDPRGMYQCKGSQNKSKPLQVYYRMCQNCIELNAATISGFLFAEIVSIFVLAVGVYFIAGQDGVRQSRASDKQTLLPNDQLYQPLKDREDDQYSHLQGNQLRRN

Key:
[1] = target: T1, human CD3 complex on Jurkat cells (human) (UniProt P07766+P04234+P09693); assay: flow cytometry on Jurkat cells (human CD3 complex), PE anti-human Fc secondary antibody, Example 3.2
[2] = target: T1, human CD3 complex on Jurkat cells (human); assay: flow cytometry on Jurkat cells
[3] = target: T1, human CD3 complex on Jurkat cells (human); assay: flow cytometry on Jurkat cells (human CD3 complex), method of Example 3.2

Binder	binding [1]	binding [2]	binding [3]
hzsp34.25 (antibody, human IgG1, lambda, L234A L235A, V domains shown) VH: EVQLVESGGGLVQPGGSLKLSCAASGFTFNTYAMNWVRQASGKGLEWVARIRSKYNNYATYYADSVKDRFTISRDDSKSTLYLQMNSLKTEDTAVYYCARHGNFGQSYVSWFAYWGQGTTVTVSS VL: QAVVTQEPSLTVSPGGTVTLTCRSSTGAVTTSNYANWVQQKPGQAPRGLIGGTNKRAPGVPARFSGSLLGDKAALTLLGAQPEDEAEYYCALWYSNLWVFGQGTKLTVLG	binds	binds	–
hzsp34.39 (antibody, human IgG1, kappa, L234A L235A, V domains shown) VH: EVQLVESGGGLVQPGGSLKLSCAASGFTFNTYAMNWVRQASGKGLEWVGRIRSKYNNYATYYADSVKDRFTISRDDSKSTLYLQMNSLKTEDTAVYYCARHGNFGQSYVSWFAYWGQGTTVTVSS VL: EIVMTQSPATLSVSPGERATLSCRSSTGAVTTSNYANWVQQKPGQAPRGLIGGTNKRAPGVPARFSGSGSGTEFTLTISSLQSEDFAVYYCALWYSNLWVFGQGTKLTVLR	binds	binds	–
hzsp34.80 (antibody, human IgG1, lambda, L234A L235A, V domains shown) VH: EVQLVESGGGLVQPGGSLKLSCAASGFTFNTAAMNWVRQASGKGLEWVGRIRSKYNNYATYYADSVKDRFTISRDDSKSTLYLQMNSLKTEDTAVYYCARHGNFGQSYVSWFAYWGQGTTVTVSS VL: QAVVTQEPSLTVSPGGTVTLTCRSSTGAVTTSNYANWVQQKPGQAPRGLIGGTNKRAPGVPARFSGSLLGDKAALTLLGAQPEDEAEYYCALWYSNLWVFGQGTKLTVLG	–	binds	binds
hzsp34.19 (antibody, human IgG1, lambda, L234A L235A, V domains shown) VH: EVQLVESGGGLVQPGGSLKLSCAASGFTFNTYAMNWVRQASGKGLEWVGRIRSKYNNYATYYADSVKDRFTISRDDSKSTLYLQMNSLKTEDTAVYYCARHGNFGQSYVSWFAYWGQGTTVTVSS VL: QAVVTQEPSLTVSPGGTVTLTCRSSTGAVTTSNYANWVQQKPGQAPRGLIGGTNKRAPGVPARFSGSLLGGKAALTLLGAQPEDEAEYYCALWYSNLWVFGQGTKLTVLG	binds	binds	–
hzsp34.81 (antibody, human IgG1, lambda, L234A L235A, V domains shown) VH: EVQLVESGGGLVQPGGSLKLSCAASGFTFNTYAMNWVRQASGKGLEWVGRISSKYNNYATYYADSVKDRFTISRDDSKSTLYLQMNSLKTEDTAVYYCARHGNFGQSYVSWFAYWGQGTTVTVSS VL: QAVVTQEPSLTVSPGGTVTLTCRSSTGAVTTSNYANWVQQKPGQAPRGLIGGTNKRAPGVPARFSGSLLGDKAALTLLGAQPEDEAEYYCALWYSNLWVFGQGTKLTVLG	–	binds	binds
hzsp34.82 (antibody, human IgG1, lambda, L234A L235A, V domains shown) VH: EVQLVESGGGLVQPGGSLKLSCAASGFTFNTYAMNWVRQASGKGLEWVGRIRLKYNNYATYYADSVKDRFTISRDDSKSTLYLQMNSLKTEDTAVYYCARHGNFGQSYVSWFAYWGQGTTVTVSS VL: QAVVTQEPSLTVSPGGTVTLTCRSSTGAVTTSNYANWVQQKPGQAPRGLIGGTNKRAPGVPARFSGSLLGDKAALTLLGAQPEDEAEYYCALWYSNLWVFGQGTKLTVLG	–	binds	binds
hzsp34.88 (antibody, human IgG1, lambda, L234A L235A, V domains shown) VH: EVQLVESGGGLVQPGGSLKLSCAASGFTFNTYAMNWVRQASGKGLEWVGRIRSKYNNYATYYADSVKDRFTISRDDSKSTLYLQMNSLKTEDTAVYYCARHGGFGQSYVSWFAYWGQGTTVTVSS VL: QAVVTQEPSLTVSPGGTVTLTCRSSTGAVTTSNYANWVQQKPGQAPRGLIGGTNKRAPGVPARFSGSLLGDKAALTLLGAQPEDEAEYYCALWYSNLWVFGQGTKLTVLG	–	binds	binds
hzsp34.89 (antibody, human IgG1, lambda, L234A L235A, V domains shown) VH: EVQLVESGGGLVQPGGSLKLSCAASGFTFNTYAMNWVRQASGKGLEWVGRIRSKYNNYATYYADSVKDRFTISRDDSKSTLYLQMNSLKTEDTAVYYCARHGNAGQSYVSWFAYWGQGTTVTVSS VL: QAVVTQEPSLTVSPGGTVTLTCRSSTGAVTTSNYANWVQQKPGQAPRGLIGGTNKRAPGVPARFSGSLLGDKAALTLLGAQPEDEAEYYCALWYSNLWVFGQGTKLTVLG	–	binds	binds
hzsp34.91 (antibody, human IgG1, lambda, L234A L235A, V domains shown) VH: EVQLVESGGGLVQPGGSLKLSCAASGFTFNTYAMNWVRQASGKGLEWVGRIRSKYNNYATYYADSVKDRFTISRDDSKSTLYLQMNSLKTEDTAVYYCARHGNFGGSYVSWFAYWGQGTTVTVSS VL: QAVVTQEPSLTVSPGGTVTLTCRSSTGAVTTSNYANWVQQKPGQAPRGLIGGTNKRAPGVPARFSGSLLGDKAALTLLGAQPEDEAEYYCALWYSNLWVFGQGTKLTVLG	–	binds	binds
hzsp34.20 (antibody, human IgG1, lambda, L234A L235A, V domains shown) VH: EVQLVESGGGLVQPGGSLKLSCAASGFTFNTYAMNWVRQASGKGLEWVARIRSKYNNYATYYADSVKDRFTISRDDSKSTLYLQMNSLKTEDTAVYYCARHGNFGQSYVSWFAYWGQGTTVTVSS VL: QAVVTQEPSLTVSPGGTVTLTCRSSTGAVTTSNYANWVQQKPGQAPRGLIGGTNKRAPGVPARFSGSLLGGKAALTLLGAQPEDEAEYYCALWYSNLWVFGQGTKLTVLG	binds	binds	–
hzsp34.107 (antibody, human IgG1, lambda, L234A L235A, V domains shown) VH: EVQLVESGGGLVQPGGSLKLSCAASGFTFNTYAMNWVRQASGKGLEWVGRIRSKYNNYATYYADSVKDRFTISRDDSKSTLYLQMNSLKTEDTAVYYCARHGNFGQSYVSWFAYWGQGTTVTVSS VL: QAVVTQEPSLTVSPGGTVTLTCRSSTGAVTTSNYANWVQQKPGQAPRGLIGGTNKRAPGVPARFSGSLLGDKAALTLLGAQPEDEAEYYCALAYSNLWVFGQGTKLTVLG	–	binds	binds
hzsp34.113 (antibody, human IgG1, lambda, L234A L235A, V domains shown) VH: EVQLVESGGGLVQPGGSLKLSCAASGFTFNTYAMNWVRQASGKGLEWVGRIRSKYNNYATYYADSVKDRFTISRDDSKSTLYLQMNSLKTEDTAVYYCARHGNFGQSYVSWFAYWGQGTTVTVSS VL: QAVVTQEPSLTVSPGGTVTLTCRSSTGAVTTSNYANWVQQKPGQAPRGLIGGTNKRAPGVPARFSGSLLGDKAALTLLGAQPEDEAEYYCALAASNLWVFGQGTKLTVLG	–	–	binds
hzsp34.114 (antibody, human IgG1, lambda, L234A L235A, V domains shown) VH: EVQLVESGGGLVQPGGSLKLSCAASGFTFNTYAMNWVRQASGKGLEWVGRIRSKYNNYATYYADSVKDRFTISRDDSKSTLYLQMNSLKTEDTAVYYCARHGNFGQSYVSWFAYWGQGTTVTVSS VL: QAVVTQEPSLTVSPGGTVTLTCRSSTGAVTTSNYANWVQQKPGQAPRGLIGGTNKRAPGVPARFSGSLLGDKAALTLLGAQPEDEAEYYCALWYRGLWVFGQGTKLTVLG	–	–	binds
hzsp34.115 (antibody, human IgG1, lambda, L234A L235A, V domains shown) VH: EVQLVESGGGLVQPGGSLKLSCAASGFTFNTYAMNWVRQASGKGLEWVGRIRSKYNNYATYYADSVKDRFTISRDDSKSTLYLQMNSLKTEDTAVYYCARHGNFGQSYVSWFAYWGQGTTVTVSS VL: QAVVTQEPSLTVSPGGTVTLTCRSSTGAVTTSNYANWVQQKPGQAPRGLIGGTNSRAPGVPARFSGSLLGDKAALTLLGAQPEDEAEYYCALWYSNLWVFGQGTKLTVLG	–	–	binds
